Some of these results come from one statement about several compounds together.
Tests used:
[1] = test system: wheat powdery mildew (BLumeria graminis); assay: Whole-plant fungicidal test, protectant activity, wheat powdery mildew; format: in vivo
[2] = test system: armyworm (Leucania separata); assay: Insecticidal activity, armyworm, spraying; conditions: 600 mg/L; mortality after two days
[3] = test system: diamond backmoth (Plutella xylostella); assay: Insecticidal activity, diamond backmoth, spraying; conditions: 600 mg/L; mortality after two days
[4] = test system: green peach aphids (Myzus persicae); assay: Insecticidal activity, green peach aphids, spraying; conditions: 600 mg/L; mortality after two days
[5] = test system: culex mosquitoes (Culex pipiens pallens); assay: Insecticidal activity, culex mosquitoes larvae, immersing; conditions: 600 mg/L; mortality after two days

SMILES | control against wheat powdery mildew ([1]; 500 mg/L) | control against wheat powdery mildew ([1]; 12.5 mg/L) | control of armyworm [2] | control of diamond backmoth [3] | control of green peach aphids [4] | control of culex mosquitoes [5]
COC(=O)N(OC)c1ccccc1COc1cc(-c2ccccc2)nn1C [Compound 1] | more than 80% |  |  |  |  | 
COC(=O)N(OC)c1ccccc1COc1cc(-c2ccc(Br)cc2)nn1C [Compound 15] | more than 80% | more than 95% | more than 85% | more than 85% | more than 85% | more than 85%
COC(=O)N(OC)c1ccccc1COc1cc(-c2ccccc2Cl)nn1C [Compound 20] |  | more than 95% |  |  |  | 
COC(=O)N(OC)c1ccccc1COc1cc(-c2ccc(Cl)nc2)nn1C [Compound 21] |  |  | more than 85% | more than 85% | more than 85% | more than 85%
COC(=O)N(OC)c1ccccc1COc1cc(-c2ccc(OCC(F)(F)F)nc2)nn1C [Compound 26] | more than 80% |  |  |  |  | 
COC(=O)N(OC)c1ccccc1COc1c(C)c(-c2ccccc2)nn1C [Compound 63] |  | more than 95% | more than 85% | more than 85% | more than 85% | more than 85%
COC(=O)N(OC)c1ccccc1COc1c(C)c(-c2ccc(Cl)cc2)nn1C [Compound 64] |  |  | more than 85% | more than 85% | more than 85% | more than 85%
COC(=O)N(OC)c1ccccc1COc1c(C)c(-c2ccc(C)cc2)nn1C [Compound 78] |  | more than 95% |  |  |  | 
COC=C(C(=O)OC)c1ccccc1-c1cc(Oc2cc(-c3ccc(Cl)cc3)nn2C)ncn1 [Compound 185] | more than 80% |  |  |  |  | 
COC=C(C(=O)OC)c1ccccc1COc1cc(-c2cccs2)nn1C [Compound 367] | more than 80% |  |  |  |  | 
